Values quoted from earlier work, collected in patent publication US20250241994A1, “PHARMACEUTICAL FORMULATION OF GLUCAGON-LIKE PEPTIDE -1 RECEPTOR AGONIST PEPTIDE FOR SUBLINGUAL DELIVERY” (Immunwork Inc., priority 2024, published 2025).
Some of these results come from one statement about several compounds together.

Details: treated human subjects; cited from earlier work

## CC[C@H](C)[C@@H]1NC(=O)[C@H](Cc2ccc(O)cc2)NC(=O)[C@@H](N)CSSC[C@@H](C(=O)N2CCC[C@H]2C(=O)N[C@@H](CC(C)C)C(=O)NCC(N)=O)NC(=O)[C@H](CC(N)=O)NC(=O)[C@H](CCC(N)=O)NC1=O [Oxytocin]
  bioavailability of sublingual formulation: less than 1%
